From publication PMC12003641
No constants are given. Whether binding was seen depends on the method and setting. In cells and extracts the contact can be indirect. Some results given as binding are weak or reduced against the parent protein; the word gives no strength. Where a sequence is shown, tags or fusion partners need not be part of it.

Chains of the proteins cited; added tags and fusions are not shown.
UniProt P40337: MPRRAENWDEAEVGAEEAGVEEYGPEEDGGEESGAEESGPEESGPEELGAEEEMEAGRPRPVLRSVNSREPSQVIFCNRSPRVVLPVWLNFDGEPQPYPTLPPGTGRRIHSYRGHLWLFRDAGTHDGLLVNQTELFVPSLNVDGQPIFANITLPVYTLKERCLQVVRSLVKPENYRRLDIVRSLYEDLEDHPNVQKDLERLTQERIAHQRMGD

Target: T1, Flag-tagged pRb (UniProt P06400)
T1 sequence: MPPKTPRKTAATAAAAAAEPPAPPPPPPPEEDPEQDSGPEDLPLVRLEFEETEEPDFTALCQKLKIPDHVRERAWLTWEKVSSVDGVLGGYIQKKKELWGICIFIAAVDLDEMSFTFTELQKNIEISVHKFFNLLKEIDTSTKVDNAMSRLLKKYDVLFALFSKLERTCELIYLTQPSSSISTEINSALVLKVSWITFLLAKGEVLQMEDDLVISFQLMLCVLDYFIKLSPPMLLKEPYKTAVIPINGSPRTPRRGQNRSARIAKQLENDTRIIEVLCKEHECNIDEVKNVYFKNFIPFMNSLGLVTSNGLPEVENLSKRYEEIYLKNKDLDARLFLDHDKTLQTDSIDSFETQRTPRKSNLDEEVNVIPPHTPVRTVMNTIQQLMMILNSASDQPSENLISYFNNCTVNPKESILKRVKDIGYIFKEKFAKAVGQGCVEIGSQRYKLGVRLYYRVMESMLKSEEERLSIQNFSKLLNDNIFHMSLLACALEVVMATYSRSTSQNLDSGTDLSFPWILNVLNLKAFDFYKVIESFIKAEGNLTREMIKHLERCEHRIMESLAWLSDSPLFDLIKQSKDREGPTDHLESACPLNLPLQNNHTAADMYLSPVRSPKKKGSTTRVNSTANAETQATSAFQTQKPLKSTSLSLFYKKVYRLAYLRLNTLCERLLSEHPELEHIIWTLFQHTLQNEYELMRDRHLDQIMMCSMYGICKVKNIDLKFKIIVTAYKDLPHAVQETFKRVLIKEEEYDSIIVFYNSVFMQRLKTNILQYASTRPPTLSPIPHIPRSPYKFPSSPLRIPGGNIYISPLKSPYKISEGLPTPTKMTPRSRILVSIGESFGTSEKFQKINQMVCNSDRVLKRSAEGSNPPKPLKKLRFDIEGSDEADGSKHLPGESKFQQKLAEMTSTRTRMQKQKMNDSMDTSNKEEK
Assay: co-IP; HEK293A transfected with Flag-pRb and HA-VHL, with or without 10 µM MG132 for 4 h; immunoprecipitation of Flag-pRb; mild lysis buffer (10 mM Tris pH 7.5, 100 mM NaCl, 10 mM EDTA, 50 mM NaF, 1% NP-40)

binding: binds
Substance: HA-tagged VHL (transient, HA-VHL wt-pBabe-puro) (from UniProt P40337 1-213)
